Measurements reported in the supplement of paper PMC6411743.
± gives the standard deviation of the averaged measurements. This is a selection; strong and weak results do not stand in their true shares.

By UniProt entry, the sequences of proteins in these tests, tags left out. Where a name states a change or a piece, a line headed by the entry shows the natural chain unless it says otherwise.
UniProt P43403: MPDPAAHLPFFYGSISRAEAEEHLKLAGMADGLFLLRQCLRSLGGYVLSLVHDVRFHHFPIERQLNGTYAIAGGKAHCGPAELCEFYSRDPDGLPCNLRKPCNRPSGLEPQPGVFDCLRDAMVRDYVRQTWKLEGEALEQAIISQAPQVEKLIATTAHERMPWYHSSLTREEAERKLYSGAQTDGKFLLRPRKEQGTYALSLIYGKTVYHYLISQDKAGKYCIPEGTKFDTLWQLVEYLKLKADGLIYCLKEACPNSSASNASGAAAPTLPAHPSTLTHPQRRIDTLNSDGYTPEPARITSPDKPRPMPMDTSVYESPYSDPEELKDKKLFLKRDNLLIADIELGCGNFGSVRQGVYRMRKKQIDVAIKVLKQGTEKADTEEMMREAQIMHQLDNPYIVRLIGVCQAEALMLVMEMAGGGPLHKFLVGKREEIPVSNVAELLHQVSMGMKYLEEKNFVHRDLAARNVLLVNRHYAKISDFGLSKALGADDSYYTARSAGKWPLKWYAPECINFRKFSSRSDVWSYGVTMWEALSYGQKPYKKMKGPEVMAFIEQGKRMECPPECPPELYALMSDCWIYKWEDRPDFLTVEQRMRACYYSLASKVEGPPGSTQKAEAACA
UniProt P49840: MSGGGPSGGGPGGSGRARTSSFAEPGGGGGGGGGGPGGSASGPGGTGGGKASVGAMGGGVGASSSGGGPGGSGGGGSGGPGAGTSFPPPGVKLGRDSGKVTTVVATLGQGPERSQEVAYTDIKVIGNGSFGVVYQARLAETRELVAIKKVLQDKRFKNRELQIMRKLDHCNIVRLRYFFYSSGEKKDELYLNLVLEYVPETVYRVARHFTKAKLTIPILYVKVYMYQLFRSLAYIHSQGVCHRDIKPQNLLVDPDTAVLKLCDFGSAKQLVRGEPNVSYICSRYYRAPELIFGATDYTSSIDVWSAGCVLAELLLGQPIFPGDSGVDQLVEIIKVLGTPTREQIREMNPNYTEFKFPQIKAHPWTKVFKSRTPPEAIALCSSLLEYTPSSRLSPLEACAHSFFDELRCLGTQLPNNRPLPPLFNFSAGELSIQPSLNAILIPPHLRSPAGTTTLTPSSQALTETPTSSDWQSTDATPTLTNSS
UniProt P54278: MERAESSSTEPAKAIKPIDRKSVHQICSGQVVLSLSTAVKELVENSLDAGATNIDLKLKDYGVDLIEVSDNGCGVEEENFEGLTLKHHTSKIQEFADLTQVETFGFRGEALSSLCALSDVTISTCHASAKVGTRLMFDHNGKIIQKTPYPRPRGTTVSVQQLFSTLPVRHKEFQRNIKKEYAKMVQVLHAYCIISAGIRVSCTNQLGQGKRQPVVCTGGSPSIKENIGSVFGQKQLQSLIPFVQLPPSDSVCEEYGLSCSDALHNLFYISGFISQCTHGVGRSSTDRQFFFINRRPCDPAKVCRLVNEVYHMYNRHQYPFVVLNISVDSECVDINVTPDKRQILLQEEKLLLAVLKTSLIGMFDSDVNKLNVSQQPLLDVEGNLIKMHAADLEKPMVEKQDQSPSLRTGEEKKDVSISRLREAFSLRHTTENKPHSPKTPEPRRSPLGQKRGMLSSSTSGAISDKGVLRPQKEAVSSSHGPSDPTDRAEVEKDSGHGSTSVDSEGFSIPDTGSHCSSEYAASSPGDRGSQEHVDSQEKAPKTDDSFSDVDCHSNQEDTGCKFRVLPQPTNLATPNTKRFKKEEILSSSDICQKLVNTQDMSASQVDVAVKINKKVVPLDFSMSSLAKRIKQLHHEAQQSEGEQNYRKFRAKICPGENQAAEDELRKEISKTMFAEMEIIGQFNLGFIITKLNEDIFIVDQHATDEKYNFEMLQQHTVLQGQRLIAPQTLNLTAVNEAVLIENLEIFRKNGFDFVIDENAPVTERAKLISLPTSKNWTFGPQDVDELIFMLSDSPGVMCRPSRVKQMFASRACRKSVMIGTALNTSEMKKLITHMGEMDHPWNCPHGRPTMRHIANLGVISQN
UniProt P40227, whole entry: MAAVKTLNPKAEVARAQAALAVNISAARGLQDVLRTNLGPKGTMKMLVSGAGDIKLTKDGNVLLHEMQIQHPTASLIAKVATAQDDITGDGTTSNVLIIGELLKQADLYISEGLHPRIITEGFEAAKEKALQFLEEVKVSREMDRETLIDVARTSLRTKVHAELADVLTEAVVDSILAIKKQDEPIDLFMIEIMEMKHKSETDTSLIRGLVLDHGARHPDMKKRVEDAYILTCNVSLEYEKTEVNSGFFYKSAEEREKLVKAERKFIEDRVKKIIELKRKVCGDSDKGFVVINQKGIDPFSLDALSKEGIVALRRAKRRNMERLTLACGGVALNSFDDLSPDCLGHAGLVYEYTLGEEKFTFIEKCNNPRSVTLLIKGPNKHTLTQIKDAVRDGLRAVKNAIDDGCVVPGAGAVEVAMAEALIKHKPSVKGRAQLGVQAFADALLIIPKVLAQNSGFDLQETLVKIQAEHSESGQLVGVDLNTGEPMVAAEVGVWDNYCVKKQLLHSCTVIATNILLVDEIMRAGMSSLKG
UniProt P51116, whole entry: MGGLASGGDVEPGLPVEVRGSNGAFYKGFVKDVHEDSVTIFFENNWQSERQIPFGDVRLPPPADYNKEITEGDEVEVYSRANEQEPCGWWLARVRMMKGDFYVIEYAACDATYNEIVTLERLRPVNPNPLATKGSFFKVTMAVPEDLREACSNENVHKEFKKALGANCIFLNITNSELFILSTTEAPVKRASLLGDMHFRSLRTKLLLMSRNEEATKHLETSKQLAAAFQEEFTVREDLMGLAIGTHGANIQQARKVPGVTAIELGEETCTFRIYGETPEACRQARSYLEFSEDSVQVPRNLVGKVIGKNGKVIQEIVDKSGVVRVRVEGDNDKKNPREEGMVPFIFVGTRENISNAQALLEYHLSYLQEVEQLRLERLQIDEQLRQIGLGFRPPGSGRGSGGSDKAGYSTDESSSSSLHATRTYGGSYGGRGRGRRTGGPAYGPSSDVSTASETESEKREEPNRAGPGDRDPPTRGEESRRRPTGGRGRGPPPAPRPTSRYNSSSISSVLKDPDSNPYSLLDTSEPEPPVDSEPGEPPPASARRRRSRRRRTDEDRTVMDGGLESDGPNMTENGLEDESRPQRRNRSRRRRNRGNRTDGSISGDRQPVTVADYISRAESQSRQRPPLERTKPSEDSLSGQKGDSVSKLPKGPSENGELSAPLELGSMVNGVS
UniProt P52732: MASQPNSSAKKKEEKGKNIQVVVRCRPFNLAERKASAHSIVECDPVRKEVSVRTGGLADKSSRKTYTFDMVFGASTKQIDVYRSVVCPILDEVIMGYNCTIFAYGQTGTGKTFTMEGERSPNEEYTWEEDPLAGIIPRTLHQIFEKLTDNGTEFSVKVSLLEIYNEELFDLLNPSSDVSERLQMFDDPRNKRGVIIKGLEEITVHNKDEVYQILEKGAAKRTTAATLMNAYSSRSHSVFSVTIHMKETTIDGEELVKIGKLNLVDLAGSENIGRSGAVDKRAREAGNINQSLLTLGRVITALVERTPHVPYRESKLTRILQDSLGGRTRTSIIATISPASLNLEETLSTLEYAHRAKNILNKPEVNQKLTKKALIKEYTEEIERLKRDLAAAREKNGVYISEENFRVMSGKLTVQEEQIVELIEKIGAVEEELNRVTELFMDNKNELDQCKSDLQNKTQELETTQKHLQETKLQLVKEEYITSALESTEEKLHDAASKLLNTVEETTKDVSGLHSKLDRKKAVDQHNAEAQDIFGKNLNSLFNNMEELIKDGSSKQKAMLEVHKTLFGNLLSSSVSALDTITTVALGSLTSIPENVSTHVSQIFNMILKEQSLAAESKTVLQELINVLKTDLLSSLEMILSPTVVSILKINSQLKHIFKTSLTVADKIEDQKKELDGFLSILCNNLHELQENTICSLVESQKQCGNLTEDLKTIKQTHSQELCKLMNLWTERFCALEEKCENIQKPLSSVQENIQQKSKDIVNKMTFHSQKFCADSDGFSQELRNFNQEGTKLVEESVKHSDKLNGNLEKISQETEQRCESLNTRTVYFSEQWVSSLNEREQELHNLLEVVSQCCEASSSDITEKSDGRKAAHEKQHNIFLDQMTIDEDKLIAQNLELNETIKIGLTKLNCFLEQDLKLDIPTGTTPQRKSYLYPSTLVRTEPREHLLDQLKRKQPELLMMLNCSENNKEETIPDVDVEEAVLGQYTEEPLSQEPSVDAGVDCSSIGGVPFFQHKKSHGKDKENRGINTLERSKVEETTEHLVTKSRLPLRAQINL
UniProt P53384: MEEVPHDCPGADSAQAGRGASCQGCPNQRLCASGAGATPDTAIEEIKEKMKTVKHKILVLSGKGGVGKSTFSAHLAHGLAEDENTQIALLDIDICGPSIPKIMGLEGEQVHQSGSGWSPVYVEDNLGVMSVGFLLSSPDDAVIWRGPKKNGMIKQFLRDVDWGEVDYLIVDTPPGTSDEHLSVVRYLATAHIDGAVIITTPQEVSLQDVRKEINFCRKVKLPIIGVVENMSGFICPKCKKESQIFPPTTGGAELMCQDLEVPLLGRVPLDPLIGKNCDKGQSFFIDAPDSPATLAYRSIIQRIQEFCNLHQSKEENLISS
UniProt P49366: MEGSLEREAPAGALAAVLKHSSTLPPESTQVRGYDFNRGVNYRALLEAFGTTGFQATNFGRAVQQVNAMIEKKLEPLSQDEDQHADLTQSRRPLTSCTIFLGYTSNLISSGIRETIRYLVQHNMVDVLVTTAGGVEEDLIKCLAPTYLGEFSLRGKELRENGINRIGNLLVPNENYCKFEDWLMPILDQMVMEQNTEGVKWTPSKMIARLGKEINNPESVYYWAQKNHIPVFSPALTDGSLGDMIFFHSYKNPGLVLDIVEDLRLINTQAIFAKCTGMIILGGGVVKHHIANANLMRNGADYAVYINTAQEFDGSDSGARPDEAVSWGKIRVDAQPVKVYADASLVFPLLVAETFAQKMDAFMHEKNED
UniProt P46940, whole entry: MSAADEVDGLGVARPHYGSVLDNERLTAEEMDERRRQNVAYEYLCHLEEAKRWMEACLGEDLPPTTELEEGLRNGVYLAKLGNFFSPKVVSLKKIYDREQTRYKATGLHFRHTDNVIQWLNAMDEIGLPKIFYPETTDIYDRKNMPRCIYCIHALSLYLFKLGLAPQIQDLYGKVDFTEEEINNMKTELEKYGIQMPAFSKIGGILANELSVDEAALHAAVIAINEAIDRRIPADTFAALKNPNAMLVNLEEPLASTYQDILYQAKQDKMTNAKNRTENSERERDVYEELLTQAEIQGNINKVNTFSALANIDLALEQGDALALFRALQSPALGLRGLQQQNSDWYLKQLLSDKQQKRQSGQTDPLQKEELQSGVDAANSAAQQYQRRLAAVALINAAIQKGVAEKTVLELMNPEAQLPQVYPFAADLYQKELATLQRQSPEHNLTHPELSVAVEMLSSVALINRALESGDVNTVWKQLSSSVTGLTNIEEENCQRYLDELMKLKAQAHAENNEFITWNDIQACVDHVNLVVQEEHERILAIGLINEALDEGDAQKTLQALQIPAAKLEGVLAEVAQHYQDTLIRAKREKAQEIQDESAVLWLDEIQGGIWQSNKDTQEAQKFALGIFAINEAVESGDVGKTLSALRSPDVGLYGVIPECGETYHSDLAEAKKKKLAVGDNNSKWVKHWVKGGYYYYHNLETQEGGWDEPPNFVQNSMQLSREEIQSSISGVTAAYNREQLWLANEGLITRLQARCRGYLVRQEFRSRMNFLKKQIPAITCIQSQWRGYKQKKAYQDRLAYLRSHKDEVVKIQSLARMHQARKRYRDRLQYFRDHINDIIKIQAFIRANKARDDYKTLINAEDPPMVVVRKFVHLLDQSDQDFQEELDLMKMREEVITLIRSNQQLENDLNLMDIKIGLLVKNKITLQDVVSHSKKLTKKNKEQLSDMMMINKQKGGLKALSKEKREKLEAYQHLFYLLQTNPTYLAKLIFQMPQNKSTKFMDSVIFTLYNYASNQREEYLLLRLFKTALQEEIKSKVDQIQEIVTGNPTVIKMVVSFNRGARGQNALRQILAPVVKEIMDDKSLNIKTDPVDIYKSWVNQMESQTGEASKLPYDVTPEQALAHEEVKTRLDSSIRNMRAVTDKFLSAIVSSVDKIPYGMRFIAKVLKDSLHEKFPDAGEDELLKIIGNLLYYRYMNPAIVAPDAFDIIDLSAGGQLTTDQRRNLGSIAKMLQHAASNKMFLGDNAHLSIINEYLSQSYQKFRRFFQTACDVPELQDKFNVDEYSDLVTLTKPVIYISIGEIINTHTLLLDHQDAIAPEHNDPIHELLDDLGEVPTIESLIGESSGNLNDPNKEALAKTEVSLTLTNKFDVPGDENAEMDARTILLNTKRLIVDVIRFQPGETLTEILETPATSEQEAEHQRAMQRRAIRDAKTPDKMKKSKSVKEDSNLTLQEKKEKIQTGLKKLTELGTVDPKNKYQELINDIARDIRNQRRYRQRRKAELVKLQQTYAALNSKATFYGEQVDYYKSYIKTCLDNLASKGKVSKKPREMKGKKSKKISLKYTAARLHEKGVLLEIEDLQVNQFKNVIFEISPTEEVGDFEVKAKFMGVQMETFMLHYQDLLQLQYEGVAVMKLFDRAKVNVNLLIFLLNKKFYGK

Compound: Nc1ncnc2c1ncn2[C@@H]1O[C@H](COP(=O)(O)OP(=O)(O)NP(=O)(O)O)[C@@H](O)[C@H]1O [adenylyl imidodiphosphate]
Assay: NP40-soluble protein abundance relative to vehicle (solubility fold change) (ratio); higher = more soluble protein in presence of AMP-PNP
Procedure, shortened: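 Jurkat crude lysate (Dounce-homogenised) was treated with eight concentrations from 0.1 to 10 mM for 10 min at room temperature, then 3 min at 37 °C. It was solubilised with 0.8% NP40 and benzonase (60 min, 4 °C) and ultracentrifuged, and the supernatant was TMT-labelled for LC-MS/MS. Intensities were vsn-normalised, and the value is the fold change against the NP40-processed vehicle per replicate, from three independent experiments.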

Target	NP40-soluble protein abundance (concentration: 1mM)	NP40-soluble protein abundance (concentration: 2mM)	NP40-soluble protein abundance (concentration: 4mM)	NP40-soluble protein abundance (concentration: 6mM)	NP40-soluble protein abundance (concentration: 8mM)	NP40-soluble protein abundance (concentration: 10mM)
CASP3 (UniProt P42574)	1.01 ± 0.026	0.977 ± 0.026	1.01 ± 0.019	0.957 ± 0.012	0.997 ± 0.019	0.985 ± 0.012
PLK1 (UniProt P53350)	1.046 ± 0.0027	1.04 ± 0.066	1.1 ± 0.037	1.05 ± 0.03	1.1 ± 0.045	1.08 ± 0.073
STT3A (UniProt P46977)	0.954 ± 0.022	0.882 ± 0.09	0.933 ± 0.027	0.991 ± 0.053	1.03 ± 0.025	0.974 ± 0.042
UniProt P49674	0.996 ± 0.018	1.01 ± 0.025	1 ± 0.035	1 ± 0.032	1.03 ± 0.03	1.01 ± 0.042
UniProt P46783 and related entries	1.03 ± 0.055	1.03 ± 0.045	0.97 ± 0.054	0.871 ± 0.11	0.845 ± 0.059	0.882 ± 0.11
UniProt P54277 and related entries	1.06 ± 0.013	1.07 ± 0.038	1.089 ± 0.0092	1.03 ± 0.046	1.05 ± 0.012	1.07 ± 0.026
NAPA (UniProt P54920)	0.986 ± 0.012	1 ± 0.051	0.975 ± 0.044	1 ± 0.037	1.001 ± 0.0071	0.959 ± 0.075
UniProt P40855 and related entries	1.04 ± 0.061	1.09 ± 0.1	1.04 ± 0.03	0.961 ± 0.077	0.901 ± 0.027	0.976 ± 0.067
IDH2 (UniProt P48735)	0.963 ± 0.031	0.956 ± 0.025	0.947 ± 0.029	0.976 ± 0.025	0.956 ± 0.046	0.942 ± 0.034
ADCY7 (UniProt P51828)	1.009 ± 0.0081	1.01 ± 0.022	0.964 ± 0.043	0.992 ± 0.016	0.98 ± 0.011	0.981 ± 0.032
UniProt P43403 and related entries	1.025 ± 0.0049	0.978 ± 0.081	1.03 ± 0.036	1.05 ± 0.026	1.07 ± 0.012	1.05 ± 0.034
HINT1 (UniProt P49773)	0.96 ± 0.012	0.983 ± 0.018	0.924 ± 0.022	0.96 ± 0.029	0.946 ± 0.042	0.899 ± 0.049
UniProt P46108 and related entries	1.05 ± 0.046	1.071 ± 0.0065	1.07 ± 0.03	1.044 ± 0.0058	1.08 ± 0.044	1.08 ± 0.066
UniProt P49840	1.01 ± 0.04	0.963 ± 0.045	1.02 ± 0.017	1.03 ± 0.086	1.08 ± 0.048	1.09 ± 0.058
UniProt P49916 and related entries	1.035 ± 0.0059	1.01 ± 0.047	1.03 ± 0.003	1.06 ± 0.019	1.08 ± 0.047	1.12 ± 0.067
PMS2 (UniProt P54278)	1.11 ± 0.056	1.16 ± 0.084	1.14 ± 0.062	1.13 ± 0.11	1.13 ± 0.091	1.13 ± 0.091
SEC13 (UniProt P55735)	0.982 ± 0.042	0.934 ± 0.081	0.945 ± 0.03	0.971 ± 0.038	1 ± 0.032	0.964 ± 0.025
RPL29 (UniProt P47914)	0.989 ± 0.068	1.06 ± 0.05	0.941 ± 0.091	0.911 ± 0.12	0.843 ± 0.093	0.947 ± 0.18
ACTR1B (UniProt P42025)	1 ± 0.062	0.927 ± 0.12	0.983 ± 0.071	0.986 ± 0.029	0.965 ± 0.063	0.961 ± 0.091
RGS19 (UniProt P49795)	1 ± 0.029	1.01 ± 0.031	0.9813 ± 0.0014	0.996 ± 0.031	0.995 ± 0.026	0.98 ± 0.014

Nothing new here: entries from further up.
Target	NP40-soluble protein abundance (concentration: 1mM)	NP40-soluble protein abundance (concentration: 2mM)	NP40-soluble protein abundance (concentration: 4mM)	NP40-soluble protein abundance (concentration: 6mM)	NP40-soluble protein abundance (concentration: 8mM)	NP40-soluble protein abundance (concentration: 10mM)
UniProt P43403 and related entries	1.025 ± 0.0049	0.978 ± 0.081	1.03 ± 0.036	1.05 ± 0.026	1.07 ± 0.012	1.05 ± 0.034
HINT1 (UniProt P49773)	0.96 ± 0.012	0.983 ± 0.018	0.924 ± 0.022	0.96 ± 0.029	0.946 ± 0.042	0.899 ± 0.049

(next part)

Target	NP40-soluble protein abundance (concentration: 1mM)	NP40-soluble protein abundance (concentration: 2mM)	NP40-soluble protein abundance (concentration: 4mM)	NP40-soluble protein abundance (concentration: 6mM)	NP40-soluble protein abundance (concentration: 8mM)	NP40-soluble protein abundance (concentration: 10mM)
TUFM (UniProt P49411)	1.01 ± 0.044	0.933 ± 0.05	1 ± 0.015	0.9578 ± 0.0077	0.988 ± 0.015	0.905 ± 0.019
UniProt P51798 and related entries	1 ± 0.019	1.03 ± 0.019	0.991 ± 0.037	0.968 ± 0.037	0.964 ± 0.039	0.965 ± 0.013
UniProt P53365 and related entries	1.01 ± 0.049	1.03 ± 0.092	0.984 ± 0.065	0.977 ± 0.045	0.981 ± 0.041	0.949 ± 0.071
UniProt P49641 and related entries	0.9774 ± 0.0012	0.98 ± 0.018	0.9624 ± 0.0049	0.981 ± 0.052	0.974 ± 0.047	0.993 ± 0.052
PRCP (UniProt P42785)	0.988 ± 0.068	1.03 ± 0.12	1.01 ± 0.12	1.15 ± 0.15	1.14 ± 0.099	1.17 ± 0.17
CAPZA2 (UniProt P47755)	1.01 ± 0.013	0.966 ± 0.02	0.9851 ± 0.0046	0.9821 ± 0.0042	1.004 ± 0.0091	0.986 ± 0.017
CCT6A (UniProt P40227)	0.869 ± 0.18	0.873 ± 0.11	0.826 ± 0.19	0.922 ± 0.09	0.836 ± 0.18	0.912 ± 0.16
PRIM2 (UniProt P49643)	0.996 ± 0.022	0.954 ± 0.018	1 ± 0.013	1.02 ± 0.044	1.02 ± 0.027	1.02 ± 0.029
FXR2 (UniProt P51116)	1.07 ± 0.022	1.1 ± 0.023	1.2 ± 0.025	1.24 ± 0.076	1.33 ± 0.051	1.39 ± 0.12
KIF11 (UniProt P52732)	1.01 ± 0.016	1 ± 0.017	0.966 ± 0.012	0.936 ± 0.035	0.9 ± 0.011	0.904 ± 0.0075
UniProt P45974 and related entries	1.01 ± 0.014	1.01 ± 0.024	1 ± 0.036	0.967 ± 0.024	0.96 ± 0.018	0.963 ± 0.043
PTDSS1 (UniProt P48651)	0.993 ± 0.02	0.993 ± 0.043	1.07 ± 0.049	1.15 ± 0.047	1.29 ± 0.085	1.26 ± 0.047
USP8 (UniProt P40818)	1.036 ± 0.0058	1.05 ± 0.033	1.048 ± 0.0058	0.997 ± 0.015	0.996 ± 0.042	1.01 ± 0.033
UniProt P54136 and related entries	0.957 ± 0.051	0.888 ± 0.14	0.92 ± 0.1	0.92 ± 0.097	0.945 ± 0.13	0.894 ± 0.16
UniProt P53384 and related entries	0.979 ± 0.025	0.969 ± 0.057	1 ± 0.031	0.982 ± 0.022	0.97 ± 0.014	0.96 ± 0.063
ARHGDIA (UniProt P52565)	0.978 ± 0.013	1.01 ± 0.015	0.97 ± 0.053	1.004 ± 0.0076	0.9792 ± 0.0045	0.985 ± 0.019
RFX3 (UniProt P48380)	0.9907 ± 0.0079	1.005 ± 0.0034	0.97 ± 0.022	0.9769 ± 0.0063	1.005 ± 0.0064	0.9899 ± 0.0028
DHPS (UniProt P49366)	1.02 ± 0.012	1.01 ± 0.024	1 ± 0.029	0.989 ± 0.024	0.977 ± 0.015	0.975 ± 0.04
UniProt P41227 and related entries	1.02 ± 0.036	1.07 ± 0.06	1.09 ± 0.03	1.15 ± 0.081	1.12 ± 0.052	1.18 ± 0.039
SEPHS1 (UniProt P49903)	1.007 ± 0.0076	0.982 ± 0.023	1 ± 0.015	0.979 ± 0.011	0.969 ± 0.016	0.929 ± 0.029

Target	NP40-soluble protein abundance (concentration: 1mM)	NP40-soluble protein abundance (concentration: 2mM)	NP40-soluble protein abundance (concentration: 4mM)	NP40-soluble protein abundance (concentration: 6mM)	NP40-soluble protein abundance (concentration: 8mM)	NP40-soluble protein abundance (concentration: 10mM)
CTCF (UniProt P49711)	1 ± 0.051	1 ± 0.047	1.02 ± 0.046	0.99 ± 0.061	0.99 ± 0.031	1.01 ± 0.036
UniProt P52948 and related entries	1.07 ± 0.047	1.1 ± 0.015	1.13 ± 0.018	1.22 ± 0.056	1.28 ± 0.02	1.417 ± 0.011
GTF2A1 (UniProt P52655)	0.999 ± 0.021	1 ± 0.012	0.971 ± 0.031	0.995 ± 0.016	0.986 ± 0.033	0.975 ± 0.039
ELL (UniProt P55199)	1.02 ± 0.034	1.05 ± 0.069	1.06 ± 0.043	1.07 ± 0.026	1.05 ± 0.029	1.11 ± 0.04
UniProt P48634 and related entries	1.05 ± 0.036	1.12 ± 0.071	1.17 ± 0.051	1.18 ± 0.13	1.21 ± 0.17	1.29 ± 0.18
LRPPRC (UniProt P42704)	0.945 ± 0.013	0.883 ± 0.068	0.941 ± 0.022	0.919 ± 0.016	0.9504 ± 0.0022	0.8966 ± 0.0071
IQGAP1 (UniProt P46940)	0.97 ± 0.026	0.934 ± 0.035	0.974 ± 0.034	0.997 ± 0.026	0.998 ± 0.015	0.997 ± 0.025
UniProt P54619 and related entries	0.993 ± 0.015	0.871 ± 0.092	0.964 ± 0.035	0.943 ± 0.025	1.01 ± 0.02	0.905 ± 0.045
UniProt P45984 and related entries	1.06 ± 0.032	1 ± 0.074	1.02 ± 0.056	0.988 ± 0.024	1.01 ± 0.072	0.982 ± 0.069
CETN2 (UniProt P41208)	0.97 ± 0.043	1.03 ± 0.029	0.938 ± 0.04	0.931 ± 0.031	0.914 ± 0.026	0.882 ± 0.031
PREP (UniProt P48147)	0.9844 ± 0.0059	0.897 ± 0.14	0.96 ± 0.032	0.933 ± 0.012	0.965 ± 0.021	0.906 ± 0.018
CDKN1B (UniProt P46527)	1.06 ± 0.034	1.1 ± 0.1	1.04 ± 0.03	0.987 ± 0.064	0.964 ± 0.019	0.996 ± 0.068
TXLNA (UniProt P40222)	1.04 ± 0.059	1.17 ± 0.13	1.08 ± 0.14	1.21 ± 0.15	1.35 ± 0.046	1.2 ± 0.2
UniProt P49750-3|P49750-4	1.07 ± 0.027	1.17 ± 0.077	1.17 ± 0.015	1.23 ± 0.065	1.25 ± 0.07	1.35 ± 0.085
UniProt P55072	0.961 ± 0.032	0.945 ± 0.037	0.946 ± 0.048	0.973 ± 0.041	0.95 ± 0.018	0.95 ± 0.063
STAT5B (UniProt P51692)	0.992 ± 0.019	1.02 ± 0.011	0.988 ± 0.014	0.9707 ± 0.0088	0.9504 ± 0.0035	0.941 ± 0.017
UniProt P51572 and related entries	1.027 ± 0.0056	1.09 ± 0.099	1.02 ± 0.028	1.03 ± 0.03	1.03 ± 0.049	1.01 ± 0.033
UniProt P51795-2	0.957 ± 0.027	0.954 ± 0.021	0.9701 ± 0.0056	0.93485 ± 0.00084	0.9674 ± 0.0051	0.938 ± 0.0099
UniProt P48059-5	1.01 ± 0.043	0.961 ± 0.086	0.981 ± 0.031	0.942 ± 0.034	0.96 ± 0.044	0.958 ± 0.087
KPNA2 (UniProt P52292)	1 ± 0.02	1.008 ± 0.0099	1.03 ± 0.033	1.01 ± 0.021	1.01 ± 0.031	1.05 ± 0.048
